Assay results published in patent publication US4684742A, “Process for the production of 2-(2-halogenoethylamino)-2-oxo-3-(2-halogenoethyl)-1.3.2.-oxazaphosphori nanes” (Polska Akademia Nauk-Centrum Baden Molekularnych i …, priority 1984, dated 1987).
At least one compound was matched to its structure with a doubt left.

System: L1210
Assay: Antileukemic activity in L1210 leukemic CD2F1 female mice (increase in life span)
Assay type: in vivo
Conditions: racemic or enantiomeric compounds, versus ifosfamide, conclusion from Table 1
Description: Antileukemic activity against L1210, toxicity and therapeutic
Antileukemic activity was evaluated in L1210 leukemic CD2F1 female
mice ED50 doses producing the 50% increase in life span of treated
mice over control were estimated from experimental data by regression
anlysis. Toxicity (LD50) were determined in healthy CD2F1 femal

O=P1(NCCBr)OCCCN1CCCl (stereo not shown) [X=Br, Y=Cl, 2-(2-bromoethylamino)-2-oxo-3-(2-chloroethyl)-1.3.2-oxazaphosphorinane]
advantage over parent ifosfamide: more advantageous than parent ifosfamide
